Literature values, collected in patent US12440455B2, “Methods of administering cannabinoids” (IMPACT NATURALS, INC., priority 2022, dated 2025).

Conditions: clinical studies

C=C(C)[C@@H]1CCC(C)=C[C@H]1c1c(O)cc(CCCCC)cc1O [Cannabidiol]
oral bioavailability: 5-10%
